Publication PMC12752627, “Discovery of a Potent and Selective TEAD Degrader with Durable Degradation Activity” (Advanced Science, 2025)
Further values from the same series stand in other lists.

System: 867 cancer cell lines
Experiment: PRISM assay (barcoded cell line screening, 5 days);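 further: top test concentration 10 mM in eight-point dilution series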
Assay type: cell-based
Parameters: scale not given here
Procedure: The principle of the PRISM assay has been described elsewhere and was conducted as previously outlined by the PRISM team at the Broad Institute.^[ [14], [31] ^] In PRISM (MTS027) experiments, KG‐FP‐003 was tested across 867 different cancer cell lines. Cells were treated with eight concentration gradients, ranging from 4.6 nM to […], in triplicate dilutions over a period of five days. Each plate was treated with 20 µM bortezomib as a positive control and DMSO as a negative control. Three replicate experiments were performed for each compound. The resulting data were analyzed using GraphPad PRISM 9.5.

CNC(=O)c1cc2c(c(F)c1-c1c(Cl)c(F)cc3c1C[C@@](CN[C@H]1CC[C@H](C(=O)N4CCC(CC5CCN(C(=O)COc6ccc(N7CCC(=O)NC7=O)c(C)c6)CC5)CC4)CC1)(c1ccccc1)O3)[C@@H](O)[C@@H](C)C2 [KG-FP-003]
KG-FP-003-AUC (ICC8_BILIARY_TRACT ACH-001848 PR300): 0.79 | KG-FP-003-AUC (ICC9_BILIARY_TRACT ACH-001849 PR300): 0.87 | KG-FP-003-AUC (ICC10_BILIARY_TRACT ACH-001834 PR300): 0.43 | KG-FP-003-AUC (ICC12_BILIARY_TRACT ACH-001838 PR300): 0.67 | KG-FP-003-AUC (ICC137_BILIARY_TRACT ACH-001839 PR300): 0.99 | KG-FP-003-AUC (IGR1_SKIN ACH-000882 PR500): 0.93 | KG-FP-003-AUC (IGR37_SKIN ACH-000650 PR500): 0.95 | KG-FP-003-AUC (IGR39_SKIN ACH-000550 PR300): 0.57 | KG-FP-003-AUC (IGROV1_OVARY ACH-000966 PR500): 0.64 | KG-FP-003-AUC (IHH4_THYROID ACH-001528 PR300): 0.98 | KG-FP-003-AUC (IM95_STOMACH ACH-000919 PR500): 0.61 | KG-FP-003-AUC (IPC298_SKIN ACH-000915 PR500): 0.93 | KG-FP-003-AUC (ISHIKAWAHERAKLIO02ER_ENDOMETRIUM ACH-000961 PR500): 0.88 | KG-FP-003-AUC (ISTMES2_PLEURA ACH-000331 PR500): 0.80 | KG-FP-003-AUC (J82_URINARY_TRACT ACH-000396 PR500): 0.72 | KG-FP-003-AUC (JAR_PLACENTA ACH-001529 PR300): 0.40 | KG-FP-003-AUC (JEG3_PLACENTA ACH-001530 PR300): 0.54 | KG-FP-003-AUC (JHH1_LIVER ACH-000620 PR500): 0.64 | KG-FP-003-AUC (JHH4_LIVER ACH-000476 PR500): 0.61 | KG-FP-003-AUC (JHH5_LIVER ACH-000734 PR500): 0.91 | KG-FP-003-AUC (JHH6_LIVER ACH-000217 PR500): 0.69 | KG-FP-003-AUC (JHH7_LIVER ACH-000848 PR500): 0.96 | KG-FP-003-AUC (JHOC5_OVARY ACH-000324 PR500): 0.72 | KG-FP-003-AUC (JHOM1_OVARY ACH-000237 PR500): 0.88 | KG-FP-003-AUC (JHOS2_OVARY ACH-000132 PR500): 0.79 | KG-FP-003-AUC (JHUEM2_ENDOMETRIUM ACH-000909 PR500): 0.98 | KG-FP-003-AUC (JHUEM7_ENDOMETRIUM ACH-000993 PR300): 0.74 | KG-FP-003-AUC (JIMT1_BREAST ACH-000711 PR500): 0.85 | KG-FP-003-AUC (JJN3_HAEMATOPOIETIC_AND_LYMPHOID_TISSUE ACH-000653 PR300): 0.82 | KG-FP-003-AUC (JL1_PLEURA ACH-000645 PR300): 0.79 | KG-FP-003-AUC (JM1_HAEMATOPOIETIC_AND_LYMPHOID_TISSUE ACH-000151 PR300): 0.71 | KG-FP-003-AUC (JMSU1_URINARY_TRACT ACH-000753 PR500): 0.69 | KG-FP-003-AUC (JMURTK2_SOFT_TISSUE ACH-001532 PR300): 0.85 | KG-FP-003-AUC (JOPACA1_PANCREAS ACH-001353 PR300): 0.84 | KG-FP-003-AUC (JR_SOFT_TISSUE ACH-001096 PR300): 0.90 | KG-FP-003-AUC (JURKAT_HAEMATOPOIETIC_AND_LYMPHOID_TISSUE ACH-000995 PR300): 0.89 | KG-FP-003-AUC (JURLMK1_HAEMATOPOIETIC_AND_LYMPHOID_TISSUE ACH-000326 PR300): 0.78 | KG-FP-003-AUC (JVM3_HAEMATOPOIETIC_AND_LYMPHOID_TISSUE ACH-000346 PR300): 0.96 | KG-FP-003-AUC (K029AX_SKIN ACH-000404 PR500): 1.00 | KG-FP-003-AUC (K562_HAEMATOPOIETIC_AND_LYMPHOID_TISSUE ACH-000551 PR300): 0.81 | KG-FP-003-AUC (KALS1_CENTRAL_NERVOUS_SYSTEM ACH-000231 PR500): 0.57 | KG-FP-003-AUC (KARPAS299_HAEMATOPOIETIC_AND_LYMPHOID_TISSUE ACH-000053 PR300): 0.85 | KG-FP-003-AUC (KARPAS620_HAEMATOPOIETIC_AND_LYMPHOID_TISSUE ACH-000193 PR300): 0.91 | KG-FP-003-AUC (KARPAS1718_HAEMATOPOIETIC_AND_LYMPHOID_TISSUE ACH-001533 PR300): 0.91 | KG-FP-003-AUC (KATOIII_STOMACH ACH-000793 PR300): 0.71 | KG-FP-003-AUC (KCL22_HAEMATOPOIETIC_AND_LYMPHOID_TISSUE ACH-000983 PR300): 0.85 | KG-FP-003-AUC (KD_SOFT_TISSUE ACH-001099 PR300): 0.42 | KG-FP-003-AUC (KE37_HAEMATOPOIETIC_AND_LYMPHOID_TISSUE ACH-000101 PR300): 0.73 | KG-FP-003-AUC (KE39_STOMACH ACH-000507 PR300): 0.91 | KG-FP-003-AUC (KE97_STOMACH ACH-000167 PR300): 0.80 | KG-FP-003-AUC (KELLY_AUTONOMIC_GANGLIA ACH-000259 PR300): 1.00 | KG-FP-003-AUC (KHM1B_HAEMATOPOIETIC_AND_LYMPHOID_TISSUE ACH-000564 PR300): 0.96 | KG-FP-003-AUC (KKU055_BILIARY_TRACT ACH-001537 PR300): 0.93 | KG-FP-003-AUC (KKU100_BILIARY_TRACT ACH-001536 PR300): 0.60 | KG-FP-003-AUC (KKU213_BILIARY_TRACT ACH-001538 PR300): 0.76 | KG-FP-003-AUC (KLE_ENDOMETRIUM ACH-000293 PR300): 0.53 | KG-FP-003-AUC (KMBC2_URINARY_TRACT ACH-000862 PR500): 0.66 | KG-FP-003-AUC (KMCH1_BILIARY_TRACT ACH-001853 PR300): 0.99 | KG-FP-003-AUC (KMH2_HAEMATOPOIETIC_AND_LYMPHOID_TISSUE ACH-000815 PR300): 0.91 | KG-FP-003-AUC (KMRC1_KIDNEY ACH-000684 PR500): 0.86 | KG-FP-003-AUC (KMRC3_KIDNEY ACH-000313 PR500): 0.87 | KG-FP-003-AUC (KMRC20_KIDNEY ACH-000250 PR500): 0.94 | KG-FP-003-AUC (KMS11_HAEMATOPOIETIC_AND_LYMPHOID_TISSUE ACH-000714 PR300): 0.90 | KG-FP-003-AUC (KMS12BM_HAEMATOPOIETIC_AND_LYMPHOID_TISSUE ACH-000380 PR300): 0.86 | KG-FP-003-AUC (KMS18_HAEMATOPOIETIC_AND_LYMPHOID_TISSUE ACH-000658 PR300): 0.91 | KG-FP-003-AUC (KMS27_HAEMATOPOIETIC_AND_LYMPHOID_TISSUE ACH-000576 PR300): 0.82 | KG-FP-003-AUC (KMS28BM_HAEMATOPOIETIC_AND_LYMPHOID_TISSUE ACH-000419 PR300): 0.87 | KG-FP-003-AUC (KNS42_CENTRAL_NERVOUS_SYSTEM ACH-000622 PR500): 0.77 | KG-FP-003-AUC (KNS60_CENTRAL_NERVOUS_SYSTEM ACH-000445 PR500): 0.84 | KG-FP-003-AUC (KNS62_LUNG ACH-000858 PR500): 0.93 | KG-FP-003-AUC (KNS81_CENTRAL_NERVOUS_SYSTEM ACH-000479 PR500): 0.66 | KG-FP-003-AUC (KON_UPPER_AERODIGESTIVE_TRACT ACH-001542 PR300): 0.90 | KG-FP-003-AUC (KOPN8_HAEMATOPOIETIC_AND_LYMPHOID_TISSUE ACH-001106 PR300): 0.98 | KG-FP-003-AUC (KOSC2CL343_UPPER_AERODIGESTIVE_TRACT ACH-001543 PR300): 0.92 | KG-FP-003-AUC (KP2_PANCREAS ACH-000281 PR500): 0.77 | KG-FP-003-AUC (KP3_PANCREAS ACH-000108 PR500): 0.83 | KG-FP-003-AUC (KP4_PANCREAS ACH-000265 PR500): 0.73 | KG-FP-003-AUC (KS1_CENTRAL_NERVOUS_SYSTEM ACH-000631 PR300): 0.62 | KG-FP-003-AUC (KU1919_URINARY_TRACT ACH-000486 PR500): 0.59 | KG-FP-003-AUC (KURAMOCHI_OVARY, PR500): 0.79 | KG-FP-003-AUC (KYM1_SOFT_TISSUE, PR300): 0.49 | KG-FP-003-AUC (KYO1_HAEMATOPOIETIC_AND_LYMPHOID_TISSUE, PR300): 0.83 | KG-FP-003-AUC (KYSE30_OESOPHAGUS, PR500): 0.64 | KG-FP-003-AUC (KYSE70_OESOPHAGUS, PR500): 1.00 | KG-FP-003-AUC (KYSE140_OESOPHAGUS, PR500): 0.95 | KG-FP-003-AUC (KYSE150_OESOPHAGUS, PR500): 0.90 | KG-FP-003-AUC (KYSE180_OESOPHAGUS, PR500): 0.88 | KG-FP-003-AUC (KYSE270_OESOPHAGUS, PR500): 0.87 | KG-FP-003-AUC (KYSE410_OESOPHAGUS, PR500): 0.71 | KG-FP-003-AUC (KYSE450_OESOPHAGUS, PR300): 0.95 | KG-FP-003-AUC (KYSE510_OESOPHAGUS, PR500): 0.86 | KG-FP-003-AUC (KYSE520_OESOPHAGUS, PR500): 0.66 | KG-FP-003-AUC (L33_PANCREAS, PR500): 0.83 | KG-FP-003-AUC (L82_HAEMATOPOIETIC_AND_LYMPHOID_TISSUE, PR300): 0.79 | KG-FP-003-AUC (LAMA84_HAEMATOPOIETIC_AND_LYMPHOID_TISSUE, PR300): 0.89
